In the assay the target is T1, BCL2-associated death promoter (BAD) protein (human) (UniProt Q92934).
T1 sequence: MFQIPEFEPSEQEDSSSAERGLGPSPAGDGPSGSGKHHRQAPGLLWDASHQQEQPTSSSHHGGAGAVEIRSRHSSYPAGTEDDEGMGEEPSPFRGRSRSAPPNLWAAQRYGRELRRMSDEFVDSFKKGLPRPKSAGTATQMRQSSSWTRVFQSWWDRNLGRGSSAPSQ
Put plainly: co-IP; CAOV-2 cells treated with NPB; which protein was precipitated is not stated in the main text.

These are yes or no findings as the source states them, for the method shown. In cells and extracts the contact can be indirect. Some results given as binding are weak or reduced against the parent protein; the word gives no strength.

B1: BCL-W (protein, UniProt Q92843 1-193)
chain: MATPASAPDTRALVADFVGYKLRQKGYVCGAGPGEGPAADPLHQAMRAAGDEFETRFRRTFSDLAAQLHVTPGSAQQRFTQVSDELFQGGPNWGRLVAFFVFGAALCAESVNKEMEPLVGQVQEWMVAYLETQLADWIHSSGGWAEFTALYGDGALEEARRLREGNWASVRTVLTGAVALGALVTVGAFFASK
For B1, the binding result is given as “binds”.
